Structures are written as SMILES. The list shows a part of the results. Shown are side measurements of this screen, not its main read-out; they come without a call. Most of these compounds were active or inconclusive in the main read-out, so they are no random draw. Words in brackets tell the shape of the fitted curve; partial curves, single points and poor fits give uncertain potencies.

Experimental findings from PubChem BioAssay AID2685 (National Center for Advancing Translational Sciences (NCATS), 2010) are described below.

The nature of this assay: qHTS Assay for Lipid Storage Modulators in Drosophila S3 Cells.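 For cell number change: cells counted by Cell Tracker Red CMTPX staining in the red channel.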 The settings on record: BODIPY lipid droplet fluorescence, 18-24 h; for cell number change: measured here: cell count max response, cells fed with added oleic acid. A digest of the protocol: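 Drosophila S3 cells got compounds at several concentrations plus oleic acid (400 uM solution). Laser-scanning cytometry with 488 nm excitation read lipid droplets at 500-530 nm and cells at 575-640 nm. Percent activity was relative to 20 uM Triacsin C.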
Background: Quantitative high-throughput screening tests each substance at several concentrations.

[1] abbreviates: measured here: cell number channel AC50, cells fed with added oleic acid.
[2] abbreviates: measured here: lipid fluorescence (Fed channel) AC50, cells fed with added oleic acid.

As a reminder, the AC50 is the midpoint of the concentration-response curve, whichever way the signal moves. In the case of `CC1=C(C(=O)Nc2ccc(C(=O)NCCC(C)C)cc2)SCCO1`, the cell number change amounted to 34.5%. Besides, the AC50 under setting [1] was 20.6 µM [rising, single point]. Also, the AC50 under setting [2] is 0.651 µM [falling, full curve].

For the compound `CC(=O)c1cn(N(C)c2ncc(C(F)(F)F)cc2Cl)c(=O)[nH]c1=O`, the cell number change is -12.3%.

As to `S=C(Nc1ccc(Cl)c(Cl)c1)N1CCCC1`, the cell number change is -25.5%.

In the case of `CC1CC(C)CN(CCCNC(=O)c2ccc3c(c2)ncn3C2CCCC2)C1` (configuration not stated), the cell number change was -10.4%. The concentration at half-maximal activity (AC50) under setting [2] was 0.13 µM [falling, full curve, poor fit].

As to `O=C(Nc1nc(-c2cc(F)ccc2F)cs1)c1cccc(N2C(=O)CCC2=O)c1`, the cell number change was -11.5%. The AC50 under setting [2] is 20.6 µM [falling, partial curve].

In the case of `COc1ccc(/C=N\NC(=O)c2ccccc2Br)cc1COc1c(F)c(F)cc(F)c1F`, the cell number change was -30.2%. The AC50 under setting [1] is 29.1 µM [falling, single point]. In addition, under setting [2], the AC50 was 0.58 µM [rising, single point].

On to `O=C(COc1ccc(Br)cc1)N(Cc1ccccc1)c1ccccn1`, for which the cell number change is 6.61%.

For the compound `Cc1cc(N/N=C/c2c(O)ccc3ccccc23)nc(-c2ccccc2O)n1`, the cell number change was -16.5%. For the same compound, under setting [2], the AC50 was 1.16 µM [falling, single point].

Take `Cc1cc(NC(=O)Nc2ccccc2F)ccc1Br`: the cell number change was -10.7%. Moreover, under setting [2], the AC50 was 29.1 µM [falling, single point].

As for `Cc1ccc(NC(=O)CS(=O)(=O)c2cn(C)c3ccccc23)c(C)c1`, the cell number change amounted to 1.99%. The AC50 under setting [2] was 0.0206 µM [rising, full curve, poor fit].

For `O=C(NCc1ccc(F)cc1)NC(=O)c1ccc(Cl)cc1`, the cell number change is 19.5%. The AC50 under setting [2] was 11.6 µM [rising, single point].

As for `O=C(CC(c1ccc(F)cc1)c1ccco1)N1CCOCC1` (configuration not stated), the cell number change was -6.92%. Also, the AC50 under setting [2] is 0.651 µM [rising, single point].

Consider `Cc1ccc(NC(=O)c2ccc(CSc3nnc(-c4ccncc4)n3C)cc2)cc1`, for which the cell number change is 18.1%.

`COc1ccccc1N1CCN(C(=O)c2cccc(S(=O)(=O)N3CCCCCC3)c2)CC1`: the cell number change was determined as 11.1%.

For `COc1nc(Nc2ccc([N+](=O)[O-])cc2)nc(NC(C)C)n1`, the cell number change is -3.43%. The half-maximal activity concentration (AC50) under setting [2] is 6.51 µM [falling, single point].

As for `CCCC(/C=C/c1ccc(OC(C)=O)cc1)=C1/c2ccccc2C(=O)N1c1ccccc1`, the cell number change is -17.4%. Further, the AC50 under setting [1] is 0.82 µM [falling, single point].

Take `O=C(CCSc1ccccc1)NNC(=O)c1ccccc1F`: the cell number change came to 7.19%. Besides, the AC50 under setting [1] was 6.51 µM [falling, single point]. Besides, the AC50 under setting [2] was 20.6 µM [rising, partial curve, poor fit].

Regarding `O=C(Nc1nccs1)c1ccc(-c2ccc([N+](=O)[O-])cc2)o1`, the cell number change came to 7.22%.

As for `O=C(CCn1cnc2ccccc21)N=Nc1c(O)[nH]c2ccccc12`, the cell number change was determined as 3.98%. Further, the AC50 under setting [2] was 1.84 µM [rising, partial curve].

With `CCCN(CCC)CC(=O)Nc1cccc2c1OCO2`, the cell number change is 30.4%. For the same compound, the AC50 under setting [1] is 0.184 µM [rising, full curve, poor fit].

`CCOC(=O)N1CCN(C(=O)CN(c2cccc(C)c2)S(=O)(=O)c2ccccc2)CC1`: the cell number change is 4.17%. Further, the AC50 under setting [2] is 0.0517 µM [rising, full curve].

For `O=C(Nc1ccc(Br)cc1)c1ccc(F)c(S(=O)(=O)NCc2cccs2)c1`, the cell number change is -13.8%.

As for `NC(=O)CCC(C(=O)O)N1C(=O)c2ccc(O)cc2C1=O` (configuration not stated), the cell number change was -41.4%. The AC50 under setting [1] is 7.31 µM [falling, full curve, poor fit]. The half-maximal activity concentration (AC50) under setting [2] was 32.6 µM [falling, partial curve, poor fit].

Regarding `CCOc1ccccc1Oc1c(C)oc2cc(OC(=O)N3CCOCC3)ccc2c1=O`, the cell number change was -12.5%.

On to `O=C(Nc1ccc(OCc2ccccc2Cl)cc1)c1cccnc1`, for which the cell number change was -24.5%. In addition, under setting [2], the AC50 is 0.731 µM [rising, full curve].

On to `O=C1CC(N2CCC(c3nc4ccccc4[nH]3)CC2)C(=O)N1Cc1ccccc1` (configuration not stated), for which the cell number change is -27.7%. The concentration at half-maximal activity (AC50) under setting [1] was 0.517 µM [falling, full curve, poor fit]. The AC50 under setting [2] is 0.231 µM [falling, full curve].

Turning to `CCOc1cc(Br)ccc1S(=O)(=O)NCc1ccccc1`, the cell number change was 0.269%. For the same compound, under setting [1], the AC50 was 5.17 µM [falling, single point]. The AC50 under setting [2] is 13 µM [falling, partial curve].

On to `O=C(CSc1nnc(-c2ccccn2)o1)Nc1ccccc1C(F)(F)F`, for which the cell number change is -16.2%.

`Cc1ccc(S(=O)(=O)NC(N)=NCCc2ccc(Cl)cc2)cc1C`: the cell number change was -50%. Also, the AC50 under setting [1] is 23.1 µM [falling, single point].

As to `O=C(CCl)Nc1cccc(S(=O)(=O)N2CCCCCC2)c1`, the cell number change is -41%. Besides, under setting [1], the AC50 was 20.6 µM [falling, single point]. Also, under setting [2], the AC50 was 20.6 µM [falling, partial curve].

As to `CCCCn1c(N)c(N(CC(C)C)C(=O)C2CC(=O)N(c3ccc(C)cc3)C2)c(=O)[nH]c1=O` (configuration not stated), the cell number change came to 3.1%.

With `Cc1csc(CN(C)C(=O)CC2C(=O)NCCN2Cc2ccc(F)cc2Cl)n1` (configuration not stated), the cell number change is -10.2%. Moreover, the AC50 under setting [2] was 0.58 µM [rising, single point].

Turning to `Cc1ccccc1Cn1c(CN2CCN(C(=O)c3ccco3)CC2)nc2c1c(=O)n(C)c(=O)n2C`, the cell number change turned out to be 38.8%. In addition, the AC50 under setting [1] is 23.1 µM [rising, single point]. For the same compound, the half-maximal activity concentration (AC50) under setting [2] was 18.4 µM [rising, partial curve].

As to `COc1ccc(C=O)cc1C1=CC(=O)C[C@H](c2ccc(Cl)cc2)C1`, the cell number change stood at 1.6%. The AC50 under setting [1] was 4.61 µM [falling, single point].

As to `O=C(O)c1ccc(-n2nncc2-c2ccccc2)cc1`, the cell number change was 16.1%. Under setting [2], the AC50 is 3.66 µM [falling, full curve, poor fit].

In the case of `CC(C)C[C@H](NC(=O)N1CCn2c1nc1ccccc12)C(=O)N[C@@H](C(=O)O)c1ccccc1`, the cell number change was determined as 8.09%.

For the compound `COC(=O)CNc1c(-c2ccccc2)nc2ccc(Br)cn12`, the cell number change was -12.3%.

In the case of `Cn1cnc2c1c(=O)n(Cc1ccc(Cl)cc1Cl)c(=O)n2C`, the cell number change stood at 6.16%. In addition, the AC50 under setting [2] was 0.116 µM [falling, partial curve, poor fit].

Regarding `COC(=O)c1ccc(C(=O)OC)c(NC(=S)N2CCCC(CO)C2)c1` (configuration not stated), the cell number change was 42.4%. Further, under setting [2], the AC50 is 29.1 µM [rising, single point].

As to `CC(C)(C)c1ccc(C(=O)OCCNC(=O)c2c(Cl)nc3ccccn23)cc1`, the cell number change was found to be 0.804%. Also, the AC50 under setting [1] is 2.59 µM [rising, partial curve].

In the case of `CN(CCc1nc2ccccc2[nH]1)Cc1nc(CC2CC2)no1`, the cell number change is -32.5%. Further, the AC50 under setting [1] is 0.92 µM [falling, full curve, poor fit]. For the same compound, the AC50 under setting [2] was 0.326 µM [falling, full curve].

In the case of `CCCCn1c(-c2ccccc2C)nc2cc3[nH]c(=O)c(C(C)C)nc3cc21`, the cell number change was -30.8%. In addition, under setting [1], the AC50 was 29.1 µM [falling, single point].

Regarding `CC1CCN(c2nc3ccccc3n2CC(=O)c2ccccc2)CC1`, the AC50 under setting [2] was 4.11 µM [rising, partial curve].

As for `CCC1(CC)NC(=O)N(CC(=O)N2N=C(c3ccc(Cl)cc3)CC2c2ccco2)C1=O` (configuration not stated), the cell number change is 4.21%.

On to `CCOC(=O)C1CCN(S(=O)(=O)c2c(C(=O)N3CCCCC3)c(C)n(C)c2C)CC1`, for which the cell number change is -15.3%. Further, the AC50 under setting [2] is 29.1 µM [rising, single point].

As for `Cc1cc(=O)n2[nH]c(SCc3ccccc3Cl)nc2n1`, the AC50 under setting [2] was 6.51 µM [rising, single point].

As to `COc1c(Cl)cccc1-c1cn2ccc(C)cc2n1`, the cell number change was 12%. Also, the AC50 under setting [2] is 0.0291 µM [rising, full curve, poor fit].

Take `COc1ccc2[nH]c(C(=O)O)c(NS(=O)(=O)c3ccc(Cl)s3)c2c1`: the cell number change is 2.83%. Further, under setting [1], the AC50 was 0.517 µM [falling, single point].

As for `O=C(COc1ccc2c3c(c(=O)oc2c1)CCCC3)NCc1ccncc1`, the cell number change is 26.5%. For the same compound, the AC50 under setting [1] was 6.51 µM [rising, single point]. Besides, the AC50 under setting [2] was 10.3 µM [rising, partial curve].

As to `CCN(CC(=O)Nc1ccccc1C(F)(F)F)C(=O)c1cc(S(=O)(=O)N(C)C)ccc1N1CCCC1`, the cell number change is 1.84%.

For the compound `Cc1cc(C)n2c(SCc3ccc(Br)cc3)nnc2n1`, the cell number change was -6.78%.

`O=C(O)c1ccc(NS(=O)(=O)c2cc(Cl)ccc2Cl)cc1O`: the cell number change was -38%. Further, the AC50 under setting [1] is 0.103 µM [falling, full curve, poor fit]. Also, the AC50 under setting [2] is 16.4 µM [falling, partial curve].

For `CCOCC(=O)NCc1ccc2c(c1)cc(C)n2C`, the cell number change amounted to 1.44%.

For `O=c1c2c3c(sc2n2cnnc2n1-c1ccccc1)N(Cc1ccccc1)CCC3`, the cell number change was -5.98%.

Consider `COC(=O)C1=C(CS(=O)(=O)c2ccccc2)NC(=O)NC1c1ccc(OC)c(OC)c1` (configuration not stated), for which the cell number change stood at 4.48%. For the same compound, under setting [2], the AC50 was 29.1 µM [rising, single point].

Take `O=C(c1ccc(N2C(=O)C3C4c5ccccc5C(c5ccccc54)C3C2=O)cc1)N1CCOCC1` (configuration not stated): the cell number change is -20%. Further, under setting [2], the AC50 is 0.0058 µM [falling, full curve, poor fit].

For the compound `Cc1ccc(OC(C)C(=O)Nc2ccncc2)cc1` (configuration not stated), the cell number change was determined as 2.07%. Further, under setting [2], the half-maximal activity concentration (AC50) was 29.1 µM [falling, single point].

With `COc1ccc(C(=O)/C=C/c2ccc(OC3CSC3)cc2)cc1`, the cell number change amounted to 6.04%. Also, the AC50 under setting [2] is 23.1 µM [rising, single point].

Turning to `Clc1cccc2sc(N3CCCC3)nc12`, the AC50 under setting [1] is 0.0731 µM [falling, partial curve, poor fit].

Regarding `O=C(NCCCl)c1ccc(OCc2ccccc2)cc1Cl`, the cell number change is -17.1%.

With `CC(NC(=S)Nc1ccccc1C(F)(F)F)C1CC2CCC1C2` (configuration not stated), the cell number change stood at 12.8%. Under setting [2], the AC50 was 4.11 µM [falling, single point].

On to `CCCCNC(=O)Nc1c(C)cc(SC#N)cc1C`, for which the cell number change stood at 16.7%. Moreover, the AC50 under setting [1] was 4.11 µM [rising, partial curve, poor fit]. For the same compound, the AC50 under setting [2] is 6.51 µM [rising, single point].

With `Cn1nc(C(=O)NCc2ccc(Cl)cc2)c2c1-c1ccccc1S(=O)(=O)C2`, the cell number change came to 1.32%. Moreover, under setting [1], the concentration at half-maximal activity (AC50) was 0.58 µM [falling, single point].
